PMC7679391
No constants are given. Whether binding was seen depends on the method and setting. In cells and extracts the contact can be indirect. Some binding calls cover weakened binding; strength is not graded here.

Amino acid sequences for entries named in this document (tags omitted).
UniProt Q9Y297: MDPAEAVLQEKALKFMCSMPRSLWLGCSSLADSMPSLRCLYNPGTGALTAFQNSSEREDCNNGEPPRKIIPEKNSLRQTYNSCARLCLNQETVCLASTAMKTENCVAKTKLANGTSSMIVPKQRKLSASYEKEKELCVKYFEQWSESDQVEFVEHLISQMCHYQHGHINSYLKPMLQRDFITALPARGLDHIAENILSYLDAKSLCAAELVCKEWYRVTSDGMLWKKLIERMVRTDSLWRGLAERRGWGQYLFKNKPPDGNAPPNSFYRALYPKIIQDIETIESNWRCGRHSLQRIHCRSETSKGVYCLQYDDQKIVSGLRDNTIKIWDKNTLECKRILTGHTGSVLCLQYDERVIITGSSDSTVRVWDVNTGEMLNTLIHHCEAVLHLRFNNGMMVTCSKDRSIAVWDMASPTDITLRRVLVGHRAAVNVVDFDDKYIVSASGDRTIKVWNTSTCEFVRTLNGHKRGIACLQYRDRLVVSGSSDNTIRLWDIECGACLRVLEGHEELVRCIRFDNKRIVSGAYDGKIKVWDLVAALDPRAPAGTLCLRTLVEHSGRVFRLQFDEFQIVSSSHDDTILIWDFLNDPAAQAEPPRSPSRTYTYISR
UniProt Q15717: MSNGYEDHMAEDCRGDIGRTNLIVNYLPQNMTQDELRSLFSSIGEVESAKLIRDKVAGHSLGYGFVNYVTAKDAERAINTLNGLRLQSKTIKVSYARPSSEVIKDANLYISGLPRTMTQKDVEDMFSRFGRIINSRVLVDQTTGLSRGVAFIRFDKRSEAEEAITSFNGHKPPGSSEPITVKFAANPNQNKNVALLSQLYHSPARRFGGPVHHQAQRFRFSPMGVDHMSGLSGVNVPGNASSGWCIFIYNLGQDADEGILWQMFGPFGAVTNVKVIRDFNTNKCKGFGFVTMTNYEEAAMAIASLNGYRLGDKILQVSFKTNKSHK

Assays:
[1] = molecular target: ubiquitin E3 ligase BTRC (β-TrCP1) (human (endogenous in SW-13)) (UniProt Q9Y297); assay: co-IP; endogenous proteins of SW-13 cells transfected with ASB16-AS1 siRNA1 or siRNA2; immunoprecipitation with either anti-HuR or anti-BTRC antibody, western blot for the other protein; knock-down of lncRNA ASB16-AS1 reduces the co-precipitate
[2] = molecular target: Human antigen R (HuR) (human (endogenous in SW-13)) (UniProt Q15717); assay: as above

| binding [1] | binding [2] | Substance |
| --- | --- | --- |
| binds |  | Human antigen R (HuR) (from UniProt Q15717 1-326) |
|  | binds | ubiquitin E3 ligase BTRC (β-TrCP1) (from UniProt Q9Y297 1-605) |
